Patent publication US12210284B2, “Photosensitive composition” (XSYS Germany GmbH, priority 2020, dated 2025)

assay: AOX (adsorbable organic halides) of ethylenically unsaturated monomers, DIN EN ISO 9562; conditions: monomer sample at solid content listed in table 1; DIN EN ISO 9562 (6.2.1); back-calculated to undiluted sample if diluted

| SMILES | AOX |
| --- | --- |
| C=CC(=O)OCC(O)COCCCCOCC(O)COC(=O)C=C (centres unmarked) [BHPD, 1,4-butanediylbis[oxy(2-hydroxy-3,1-propanediyl)] diacrylate, reference compound] | 2600 mg/L |
| C=CC(=O)OCC(O)COc1ccccc1 (centres unmarked) [HPPE, 2-hydroxy-3-phenoxypropyl prop-2-enoate, reference compound] | 4600 mg/L |
| C=C(C)C(=O)NCCC[N+](C)(C)C [MAPTAC, Methacrylamidopropyltrimethylammonium chloride] | <10 mg/L |
| C=CC(=O)NC(C)S(=O)(=O)[O-].[Na+] (centres unmarked) [Na-AMPS, sodium salt of 2-acrylamido-2-methylpropane sulfonic acid] | <10 mg/L |
| C=C(C)C(=O)OCC[N+](C)(C)C.[Cl-] [TMAEMC, 2-Trimethylammonium ethyl methacrylate chloride] | <50 mg/L |
